According to PubChem BioAssay AID540256 (National Center for Advancing Translational Sciences (NCATS), 2011):
In all, about 300,000 compounds went through this assay and about 3,700 (1.2%) were called active. The shares of active, inactive and inconclusive entries below differ from those in the screen. Calls follow the shape of the full dose curve; tested in HEK293 cells. Potencies of inconclusive entries are doubtful fits and often do not repeat.

test: qHTS for Inhibitors of binding or entry into cells for Lassa Virus; conditions: Lassa virus pseudotype entry inhibition, cell reporter; activity change, negative = inhibition: at 37.9 µM (top of the series) unless noted; also: nearly all actives have a fitted effect of over 50% in size
% is scaled to controls: 0 for no effect and ±100 for the full control effect; potency is read from the fitted curve at half-maximal effect.

With `Clc1ccccc1CSc1nnc(-c2cccnc2)n1Cc1ccco1` as the compound, how does the Potency read?
The Potency was inconclusive: 3.66 µM [activator, full curve, poor fit].

For `O=C(NCCCN1CCOCC1)c1cccc(S(=O)(=O)Nc2ccccc2Cl)c1`, which Potency is on record?
Its Potency is “inactive”.

For `O=C(NCC(c1cccnc1)N1CCN(c2ccccc2F)CC1)OCc1ccccc1` (centres undefined), which Potency is on record?
Its Potency is inconclusive: 20 µM [inhibitor, single point].

For `O=S(=O)(c1ccc(NC(=S)NN=C(Cc2ccccc2)Cc2ccccc2)cc1)N1CCOCC1`, which Potency is on record?
The Potency was inconclusive: 25.1 µM [inhibitor, single point].

Which Potency does the source give for `Fc1ccccc1NC(=S)N1CCN(C/C=C/c2ccccc2)CC1` here?
Its Potency is inconclusive: 25.9 µM [inhibitor, single point].

With `CCOC(=O)C1CCN(C(=O)c2ccccc2NS(=O)(=O)c2ccc(F)c(F)c2)CC1` as the compound, how does the Potency read?
Its Potency is inconclusive: 20 µM [inhibitor, partial curve, poor fit].

Which Potency does the source give for `O=[N+]([O-])c1cc(-c2cccnc2)n[nH]1` here?
The Potency was inconclusive: 3.16 µM [inhibitor, single point].

With `O=c1[nH]cnc2nc(-c3ccc(N(CCCl)CCCl)cc3)[nH]c12` as the compound, how does the Potency read?
Its Potency is inconclusive: 5.62 µM [activator, single point].

For `CC(C)(C)c1ccc(C2(C)NC(=O)N(CC(=O)Nc3ccc4c(c3)OCO4)C2=O)cc1` (centres undefined), which Potency is on record?
The Potency was inconclusive: 35.5 µM [inhibitor, single point].

For `CSCCC(NC(=O)COc1ccccc1)C(=O)NCCOc1ccc(C)cc1` (centres undefined), which Potency is on record?
The Potency was inconclusive: 39.8 µM [inhibitor, partial curve, poor fit].

Which Potency does the source give for `CCc1nc(SCC(=O)N2CCCc3ccccc32)c2oc3ccccc3c2n1` here?
Its Potency is active: 18.3 µM.

With `O=C(CNS(=O)(=O)c1cccc(Br)c1)NCCCc1ccccc1` as the compound, how does the Potency read?
The Potency was inconclusive: 3.98 µM [inhibitor, partial curve, poor fit].

For `CCCCc1cc(O)c(CCCC)c(O)c1`, which Potency is on record?
Its Potency is inconclusive: 3.16 µM [activator, single point].

With `COc1ccccc1C(=O)Nc1ccc2nc(SCC(=O)N3CCCC3)sc2c1` as the compound, how does the Potency read?
Its Potency is “inactive”.

Which Potency does the source give for `COc1ccccc1NC(=O)CN(c1ccc([N+](=O)[O-])cc1)S(=O)(=O)c1ccccc1` here?
The Potency was inconclusive: 1.26 µM [inhibitor, single point].

Which Potency does the source give for `Cc1nc([N+](=O)[O-])c(C(=O)OCc2cccc(Br)c2)n1C` here?
The Potency was “inactive”.

With `COc1ccc(N(CC(=O)NCc2ccc(F)cc2)C(=O)c2snc(C(N)=O)c2N)cc1` as the compound, how does the Potency read?
The Potency was inconclusive: 35.5 µM [inhibitor, single point].

With `COc1ccc(N2C(=O)CSC23CCCCC3)cc1` as the compound, how does the Potency read?
The Potency was “inactive”.

For `CCCCC(c1nnnn1C1CCCC1)N1CCN(C2CCCC2)CC1` (centres undefined), which Potency is on record?
The Potency was “inactive”.

For `COc1ccc(NS(=O)(=O)c2cc(N/C(=N\S(=O)(=O)c3ccccc3)c3ccc(F)cc3)ccc2Cl)cc1`, which Potency is on record?
The Potency was inconclusive: 14.1 µM [inhibitor, partial curve].

Which Potency does the source give for `O=[N+]([O-])c1ccc(COc2cccc3cccnc23)cc1` here?
Its Potency is inconclusive: 5.62 µM [activator, partial curve, poor fit].

For `CCOc1ccc(-c2c(C)nn3c(C)c(C(=O)Nc4cccc(Cl)c4C)cnc23)cc1OCC`, which Potency is on record?
The Potency was “inactive”.

Which Potency does the source give for `COc1ccc2sc(NC(C)=O)nc2c1` here?
Its Potency is inconclusive: 16.4 µM [inhibitor, single point].

For `COc1ccc(-n2nnc3c(=O)n(C/C=C/c4ccccc4)cnc32)cc1`, which Potency is on record?
The Potency was inconclusive: 14.6 µM [inhibitor, partial curve].

Which Potency does the source give for `COc1ccc(NC(=O)CCc2nc3c(C)nn(-c4ccc(C)cc4)c3n(C)c2=O)c(OC)c1` here?
The Potency was “inactive”.

Which Potency does the source give for `CSc1nn(Cc2ccccc2C)c(NC(C)=O)c1S(=O)(=O)c1ccc(C)cc1` here?
The Potency was “inactive”.

Which Potency does the source give for `COc1cc2c(cc1OC)CN(C(=O)c1oc3ccccc3c1C)CC2` here?
The Potency was inconclusive: 8.91 µM [inhibitor, partial curve].

With `COc1ccc(OC)c(NC(=O)c2nc(S(=O)(=O)Cc3ccccc3)ncc2Cl)c1` as the compound, how does the Potency read?
The Potency was inconclusive: 15.8 µM [inhibitor, single point].

With `CCOC(=O)CCn1c(=O)c2cccn2c2cccnc21` as the compound, how does the Potency read?
The Potency was “inactive”.

Which Potency does the source give for `CN(CC(=O)Nc1ccccc1C(F)(F)F)C(=O)c1cccc(-n2cccc2)c1` here?
The Potency was “inactive”.

With `Cc1ccc(S(=O)(=O)N2CCN(C(C(=O)Nc3ccc(F)cc3)c3ccccc3)CC2)cc1` (centres undefined) as the compound, how does the Potency read?
Its Potency is active: 6.31 µM.

For `COc1ccc(C(=O)OCC(=O)Nc2cccc(C(C)=O)c2)cc1OC`, which activity change, negative = inhibition is on record?
Its activity change, negative = inhibition is inconclusive: 8.68% [activator] [at 46.1 µM].

With `COc1ccc(C(=O)NC2CCSC2=O)cc1` (centres undefined) as the compound, how does the Potency read?
Its Potency is inconclusive: 7.3 µM [activator, single point].

For `CC1(C)CCC(=NNC(N)=S)CC1`, which Potency is on record?
The Potency was “inactive”.

For `COc1ccc2c(O)c(-c3c(C)cc(C)cc3C)c(=O)[nH]c2c1`, which Potency is on record?
Its Potency is “inactive”.

Which Potency does the source give for `COc1ccc(CCn2c(=S)[nH]c3cc(C(=O)NCc4ccco4)ccc3c2=O)cc1OC` here?
The Potency was inconclusive: 29.1 µM [inhibitor, single point].

For `Cn1c(=O)c2cc(S(=O)(=O)NCCC(=O)Nc3ccc(Cl)cc3)ccc2n(C)c1=O`, which Potency is on record?
The Potency was “inactive”.

For `CC1=NN(c2ccc(C)c(C)c2)C(=O)/C1=C\C=C\c1ccc([N+](=O)[O-])o1`, which Potency is on record?
The Potency was active: 7.08 µM.

With `COc1ccc(-n2c(C)c(C)c3c(NCCO)ncnc32)cc1` as the compound, how does the Potency read?
Its Potency is inconclusive: 1.26 µM [inhibitor, single point].

For `COc1cc(/C=N/NC(=O)c2cccc(N3CCCC3=O)c2)ccc1O`, which Potency is on record?
The Potency was inconclusive: 11.2 µM [activator, partial curve, poor fit].

Which Potency does the source give for `CNC(=O)CCc1[nH]c2ccccc2c1Sc1ccccc1` here?
Its Potency is inconclusive: 14.6 µM [inhibitor, partial curve, poor fit].

Which Potency does the source give for `CC1CCN(CC(=O)n2c3c(c4ccccc42)CCCC3)CC1` here?
Its Potency is inconclusive: 16.4 µM [inhibitor, single point].

With `O=C(NCc1ccco1)c1cc(C(=O)C2CC2)c[nH]1` as the compound, how does the Potency read?
The Potency was inconclusive: 32.6 µM [inhibitor, partial curve, poor fit].

Which Potency does the source give for `COc1cccc(Nc2nnc(SCC3CCCCO3)s2)c1` (centres undefined) here?
The Potency was inconclusive: 8.91 µM [inhibitor, partial curve, poor fit].
